Data on one sequence can be found in patent US10526373B2 (CAREGEN CO., LTD., priority 2016, dated 2020).

No end group written: not given here.

The data set is described as follows: general procedure: peptide synthesis; chlorotrityl chloride resin. Conditions: whole synthesis.

As to RWRRKIEN, the crude mass was 0.65 g. The crude yield (scale of the general procedure 700 mg resin) was found to be 92.0%.
